From PubChem BioAssay AID493014 (National Center for Advancing Translational Sciences (NCATS), 2011)
This is one part of the list. The main result of the screen is listed elsewhere. These columns were measured beside it and carry no call. The list favours compounds with an active or inconclusive main result. The note in brackets gives the kind of curve behind each potency; many fits are weak.

Assay: qHTS Assay to Find Inhibitors of Chronic Active B-Cell Receptor Signaling
Conditions: ABC-DLBCL IkBa-CBG/CBR reporter, luminescence ratio (green luciferase fused to IkBa over red control in TMD8 lymphoma cells), 4 h
Procedure, shortened: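 TMD8 ABC-DLBCL cells carrying doxycycline-inducible green luciferase fused to IkappaBalpha plus unfused red luciferase were exposed to compounds (up to 46 uM) for 4 hrs at 37C. Activity came from the overlap-corrected green/red luminescence ratio.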

[1] = measured here: IkBa-CBG green luminescence
[2] = measured here: CBR red luminescence, cell number

Structure (SMILES) | AC50 [1] | AC50 [2]
Cc1nn(CCC(=O)NNC(=S)Nc2ccccc2)c(C)c1Br | 9.2 µM [falling, partial curve] | 
Nc1c(C(=O)Nc2ccc3c(c2)OCCO3)nnn1Cc1ccc(Cl)cc1 |  | 29.1 µM [rising, single point]
O=C(COC(=O)/C=C/c1ccccc1)NNC(=O)c1ccc([N+](=O)[O-])cc1 |  | 29.1 µM [rising, single point]
NC(N)=NN=C1CCCCCCCCCCC1 |  | 35.5 µM [falling, single point]
Cc1ccc(-c2cc(-c3cccs3)[nH]n2)c(O)c1 |  | 16.4 µM [falling, single point]
Cc1c(C(=O)OCC(C)C)[nH]c2c1C(=O)CC(c1cccs1)C2 (stereo not drawn) | 13 µM [falling, partial curve] | 5.17 µM [rising, full curve]
CC1=C(C(=O)N2CCOCC2)C(c2cc(C)cs2)NC(=O)N1 (stereo not drawn) |  | 2.91 µM [rising, partial curve, poor fit]
CC1=C(C(=O)Nc2cccc(C(=O)NC3CCCC(C)C3C)c2)SCCO1 (stereo not drawn) |  | 20 µM [falling, single point]
O=C(CCCOc1ccc(Cl)cc1Cl)N/N=C/c1ccccc1 |  | 9.2 µM [rising, single point]
O=C(Nc1nc(COc2ccccc2)cs1)c1ccccc1F |  | 29.1 µM [falling, single point]
COc1cn(-c2ccccc2)nc1C(=O)Nc1ccccc1 |  | 22.4 µM [falling, single point]
CC(C)Cc1ccc(CN2CCCC(NC(=O)c3ccnn3C)C2)cc1 (stereo not drawn) |  | 12.6 µM [falling, partial curve]
CC1(C)CC(=O)C(=Cc2cn(-c3ccccc3)nc2-c2ccc(Cl)cc2)C(=O)C1 |  | 0.708 µM [rising, full curve]
COC(=O)CSc1ccc2c(N)c(C(=O)OC)sc2c1 | 10.3 µM [rising, partial curve, poor fit] | 10.3 µM [falling, partial curve, poor fit]
CC(C)c1ccc(-c2c(C#N)c(N)nc3c2CCCCC3)cc1 |  | 23.1 µM [falling, single point]
CC(OC(=O)Cc1n[nH]c(=O)c2ccccc12)C(=O)Nc1ccc(Cl)cn1 (stereo not drawn) |  | 11.2 µM [falling, partial curve, poor fit]
Cc1cc(C)c2nc(NC(=O)c3cc(C)on3)sc2c1 |  | 9.2 µM [falling, partial curve]
CN(/N=C/c1cccc(Br)c1)C1=NS(=O)(=O)c2ccccc21 |  | 11.2 µM [rising, partial curve, poor fit]
Cc1cccc(-n2cnc(C(=O)N/N=C\c3ccc(Br)cc3)c2)n1 |  | 29.1 µM [falling, single point]
O=C(Nc1ccccc1Br)c1ccc(OC(=S)N2CCOCC2)cc1 |  | 1.12 µM [falling, partial curve, poor fit]
Cc1ccc(/C=C/C(=O)Nc2ncc(C)s2)o1 |  | 14.6 µM [falling, partial curve]
Clc1nc(CN2CCCCC2)nc2sc3c(c12)CCC3 |  | 28.2 µM [falling, single point]

Structure (SMILES) | AC50 [1] | AC50 [2]
S=C(NCCC1=CCCCC1)Nc1ccccc1 |  | 7.08 µM [rising, full curve]
O=C(c1ccc(Cl)c(S(=O)(=O)N2CCc3ccccc32)c1)N1CCN(c2ccccc2O)CC1 |  | 29.1 µM [falling, single point]
CC(C)c1ccc(N2C(=O)N(Cc3ccccc3Cl)c3ccccc3S2(=O)=O)cc1 |  | 15.8 µM [falling, partial curve, poor fit]
COc1ccc(OC)c(NC(=O)CNC(c2ccccc2)c2ccccc2)c1 |  | 0.1 µM [falling, full curve, poor fit]
COc1ccc(C2=NOC(COc3ccc4c(C)cc(=O)oc4c3)C2)c(OC)c1 (stereo not drawn) | 11.2 µM [falling, partial curve, poor fit] | 1.41 µM [rising, full curve, poor fit]
COc1ccccc1C(=O)NC(=O)COC(=O)C1CC1 |  | 32.6 µM [falling, single point]
CC(C)[C@H](CO)Nc1nc(NCc2ccc(S(N)(=O)=O)cc2)c2ncn(C(C)C)c2n1 |  | 12.6 µM [falling, partial curve, poor fit]
Cc1[nH]c2ccc(F)cc2c1CCN(Cc1ccncc1)C(=S)Nc1ccc(F)cc1 |  | 17.8 µM [falling, single point]
COc1ccc(-c2csc(N3CCSCC3)n2)cc1 |  | 35.5 µM [rising, single point]
O=[N+]([O-])c1ccc(COc2cccc(CNc3ccc(Br)cc3)c2)cc1 |  | 16.4 µM [falling, single point]
CC(C)OC(=O)CSc1nc2ccccc2s1 |  | 11.6 µM [rising, partial curve, poor fit]
CC(=O)Nc1ccc(S(=O)(=O)N(C)S(=O)(=O)c2ccc(F)cc2)cc1 |  | 4.47 µM [rising, full curve, poor fit]
CN1CCN(C2=C(Cl)C(=O)N(c3ccc(Cl)c(Cl)c3)C2=O)CC1 |  | 10 µM [falling, partial curve, poor fit]
COC(=O)Cc1c(C)nc2nc(-c3ccc(C)cc3)[nH]n2c1=O |  | 2.31 µM [falling, full curve]
O=C(Nc1ccccc1C(=O)OCC(=O)N1CCc2ccccc2C1)c1ccco1 |  | 0.794 µM [falling, full curve]
COc1ccc(NC(=S)N(CCc2c(C)[nH]c3ccc(C)cc23)Cc2cccs2)cc1 | 4.11 µM [falling, partial curve, poor fit] | 
O=C(O)CSC1CC(=O)N(c2cccc(Cl)c2)C1=O (stereo not drawn) |  | 35.5 µM [falling, single point]
COc1ccc(-c2cc(C(=O)N(C)CC(=O)Nc3cccc(F)c3)c3ccccc3n2)cc1 |  | 29.1 µM [falling, single point]
N#C/C(=C\c1ccc[nH]1)S(=O)(=O)c1ccccc1 |  | 29.1 µM [rising, partial curve, poor fit]
O=C(Nc1nnc(-c2ccco2)s1)C1CCCCC1 |  | 2 µM [falling, full curve, poor fit]
N/C(=N\OC(=O)C1CCCCC1)c1ccc(Cl)cc1 |  | 11.2 µM [rising, single point]
CCOC(=O)C1CCCN(Cc2ccc(OCc3ccccc3)cc2)C1 (stereo not drawn) |  | 35.5 µM [falling, single point]

Record cards (already shown).
O=C(O)CSC1CC(=O)N(c2cccc(Cl)c2)C1=O (stereo not drawn) as listed: AC50 [2]: 35.5 µM [falling, single point]
O=[N+]([O-])c1ccc(COc2cccc(CNc3ccc(Br)cc3)c2)cc1 as listed: AC50 [2]: 16.4 µM [falling, single point]
CC(C)[C@H](CO)Nc1nc(NCc2ccc(S(N)(=O)=O)cc2)c2ncn(C(C)C)c2n1 as listed: AC50 [2]: 12.6 µM [falling, partial curve, poor fit]
COC(=O)Cc1c(C)nc2nc(-c3ccc(C)cc3)[nH]n2c1=O as listed: AC50 [2]: 2.31 µM [falling, full curve]

Next entries:

Structure (SMILES) | AC50 [1] | AC50 [2]
O=C(NN/C(=N/S(=O)(=O)c1ccc(Cl)cc1)c1ccccc1)c1cccc(Cl)c1 |  | 17.8 µM [falling, single point]
CN(C)S(=O)(=O)c1cccc(C(=O)NCc2cccs2)c1 |  | 4.61 µM [rising, partial curve, poor fit]
COc1cc(OC)c(OC)cc1CNC(=O)CCN1C(=O)c2cccc([N+](=O)[O-])c2C1=O |  | 3.98 µM [falling, full curve, poor fit]
CCN1CCSc2ccc(C(=O)NCc3ccccc3Br)cc21 |  | 28.2 µM [falling, partial curve, poor fit]
O=c1ccn(CCOc2ccc(Cl)cc2)c(=O)[nH]1 |  | 5.62 µM [falling, full curve, poor fit]
O=C(Nc1ccc(SC(F)F)cc1)c1ccccc1F |  | 35.5 µM [falling, single point]
Cc1cccc(NC(=O)C2=C(O)c3ccccc3N(C)S2(=O)=O)c1 |  | 14.6 µM [falling, partial curve]
CCOC(=O)c1cc2c(ccn2C)n1Cc1ccc(C#N)cc1 |  | 5.62 µM [rising, single point]
COc1nc(NCc2ccc(Cl)cc2)nc(OC)n1 |  | 14.1 µM [rising, single point]
COc1ccc(NC(=O)Cn2c(-c3ccccc3)cn(-c3ccc(C)cc3)c2=O)cc1 |  | 14.6 µM [rising, partial curve]
COCCN(CCOC)C(=O)Nc1ccc(Cl)cc1 |  | 2.24 µM [rising, full curve, poor fit]
C#CCSc1nnc(-c2ccc(C)cc2)o1 |  | 29.1 µM [falling, single point]
Cc1cc(C(=O)COC(=O)[C@H](C)NC(=O)c2ccco2)c(C)n1Cc1ccco1 |  | 35.5 µM [rising, single point]
COc1cccc(OCC(O)CNC(=O)c2oc3c(C)c(C)ccc3c2C)c1 (stereo not drawn) |  | 14.1 µM [falling, single point]
COc1cccc(/C=N/N2CCN(C3c4ccccc4-c4ccccc43)CC2)c1O |  | 35.5 µM [falling, single point]
Cc1cc(C)cc(N(CC(=O)NC(C)(C)C)C(=O)CNC(=O)c2cccs2)c1 |  | 3.55 µM [falling, single point]
CCn1c(=O)c(C(=O)Nc2nc3ccccc3[nH]2)c(O)c2ccccc21 |  | 5.62 µM [falling, partial curve, poor fit]
CCc1ccc(NCc2ccc(OC)c(Cn3ccnc3)c2)cc1 |  | 35.5 µM [rising, single point]
Cc1cc(C)n(CCC(=O)N/N=C/c2c(O)ccc3ccccc23)n1 |  | 3.98 µM [falling, partial curve]
COc1cccc(NC(=O)[C@H](Cc2c[nH]c3ccccc23)NC(=O)[C@@H]2Cc3ccccc3CN2)c1 |  | 35.5 µM [falling, single point]
COC(=O)c1ccc(-n2ccnc2)cc1 |  | 31.6 µM [falling, partial curve, poor fit]
